Laboratory results: publication PMC7819943, “Rice protein-binding microarrays: a tool to detect cis-acting elements near promoter regions in rice”
Some of the results follow.

Molecular target: T1, OsSMF1 (Oryza sativa, UniProt Q6ZLB0 1-436)
T1 sequence: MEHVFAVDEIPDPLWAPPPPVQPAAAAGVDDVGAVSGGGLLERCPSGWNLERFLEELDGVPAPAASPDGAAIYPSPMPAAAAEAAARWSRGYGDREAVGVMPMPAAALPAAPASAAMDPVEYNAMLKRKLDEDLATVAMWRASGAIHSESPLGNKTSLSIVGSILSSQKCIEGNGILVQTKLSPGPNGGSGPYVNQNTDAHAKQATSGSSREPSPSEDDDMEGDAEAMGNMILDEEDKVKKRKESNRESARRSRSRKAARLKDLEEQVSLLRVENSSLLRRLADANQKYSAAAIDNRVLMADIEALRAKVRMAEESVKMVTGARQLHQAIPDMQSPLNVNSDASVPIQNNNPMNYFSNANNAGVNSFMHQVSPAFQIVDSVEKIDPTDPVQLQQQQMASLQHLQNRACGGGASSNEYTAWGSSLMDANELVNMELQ
Assay: protein-binding microarray (RPBM); PBS, 2% BSA, 51.3 ng/ul salmon testes DNA, 50 uM zinc acetate, 200 nM TF, 25 C, 1 h; high values mean tight binding
Conditions: protein: recombinant; tags: N-terminal polyhistidine and DsRed monomer fusion (pET32a); chain copies: 2; label: CyDye5-dUTP incorporated in the synthesized complementary strand; 3' TTTTT single-stranded linker to array surface; dsDNA, one strand shown
Method in brief: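 Transcription factors were each fused at the N-terminus to a polyhistidine tag plus DsRed and expressed in E. coli BL21-CodonPlus before Ni–NTA purification. Binding to a double-stranded custom Agilent array was carried out with 200 nM protein at 25 °C for 1 h in PBS, 2% BSA, salmon testes DNA and 50 µM zinc acetate. The binding signal is per-feature fluorescence intensity, in arbitrary units, on an Axon 4000B scanner.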

| Sequence | binding signal |
| --- | --- |
| TCTTTCTGCACTTTCTCTGAACGTGGATAAGACATAACCGCGGAGTCACCTAGTGCAG | 8130 fluorescence intensity (a.u.) |
| TGACGCGCCGGCCGGTCCAGCCTCCACGCGAGCAGCGGGTCGGAGTCACCTAGTGCAG | 5000 fluorescence intensity (a.u.) |
| CCTGGAACGCCTTCGTCTACATCATCGACGGCGAGGGCGTCGGAGTCACCTAGTGCAG | 5970 fluorescence intensity (a.u.) |
| GAGTGAGTGGTCACGTTACGTCACGTCACGAAGTGTGGGCCGGAGTCACCTAGTGCAG | 11800 fluorescence intensity (a.u.) |
| AGTAGAGAGATCTTGACAAAGTCATCGGTGATGAAGTCGACGGAGTCACCTAGTGCAG | 3570 fluorescence intensity (a.u.) |
| CCTCTCTTATCCTCTCCTCCACGGCTCCACGTCTATTCTCCGGAGTCACCTAGTGCAG | 4400 fluorescence intensity (a.u.) |
| TTATGGGTGGAGTTGGCGGCAGCAACGAACCTCGTGTCATCGGAGTCACCTAGTGCAG | 3850 fluorescence intensity (a.u.) |
| TTGATATACCTGTCAGCATGCAGCATGCTATCTCAGTCTTCGGAGTCACCTAGTGCAG | 4360 fluorescence intensity (a.u.) |
| CGGCGATGGAGACGACGAGCTGCCGAGCGTGCGTGCGCGTCGGAGTCACCTAGTGCAG | 3410 fluorescence intensity (a.u.) |
| ACGGGATACTACCAAACAGAACCATCTGCCATTCCTGTTGCGGAGTCACCTAGTGCAG | 3500 fluorescence intensity (a.u.) |
| TTGATACTGTCTTAATAATTTTATCTTGATTGACACGTGGCGGAGTCACCTAGTGCAG | 16800 fluorescence intensity (a.u.) |
| CTGCCATTCCAAGTAAAAGGTGGTGAATGGGAAATTGACACGGAGTCACCTAGTGCAG | 3500 fluorescence intensity (a.u.) |
| TTTGAGGTTTGACAAAATAAAACTCACATGGTGACATGGACGGAGTCACCTAGTGCAG | 5340 fluorescence intensity (a.u.) |
| GTTATTCATCAGGAATTCTGTGGCATGTTTGATTAGTTACCGGAGTCACCTAGTGCAG | 3760 fluorescence intensity (a.u.) |
| CTCATCCAAACGCCGCCACCCTCGTGGATGCAACGAGCACCGGAGTCACCTAGTGCAG | 21900 fluorescence intensity (a.u.) |
| CCTTACTCCTCGTCTGCAGCCGCCAACACGTACGATTACACGGAGTCACCTAGTGCAG | 3940 fluorescence intensity (a.u.) |
| CACCAATGGGCCGTACATCCAGCTAGCTCATTGACGCATCCGGAGTCACCTAGTGCAG | 3300 fluorescence intensity (a.u.) |
| CACTTCACCTTTTATCATAATGAAGCTCTTCCTCCTCCTTCGGAGTCACCTAGTGCAG | 3440 fluorescence intensity (a.u.) |
| CCAAACCCATCCGCTGTTGAGCCCTCCACGTCAGCGCCTCCGGAGTCACCTAGTGCAG | 25100 fluorescence intensity (a.u.) |
| TCAGCCTCAGTACCCACCACCTCCACGCTCGCGCCGTCGGCGGAGTCACCTAGTGCAG | 3390 fluorescence intensity (a.u.) |
| TATACGAGAAGTAACCACCCCTCATGCAAGTGGTAATTTCCGGAGTCACCTAGTGCAG | 12800 fluorescence intensity (a.u.) |
| ATCCTACTGCAAATCAAAGGGCTGCCAATTTGCCAAATCACGGAGTCACCTAGTGCAG | 31600 fluorescence intensity (a.u.) |
| CAGCCGCCCGGCGCGCGCGTCACCGTCCGCAACCGCCACCCGGAGTCACCTAGTGCAG | 5140 fluorescence intensity (a.u.) |

At a glance, part of the list above:

| Sequence | binding signal |
| --- | --- |
| CCAAACCCATCCGCTGTTGAGCCCTCCACGTCAGCGCCTCCGGAGTCACCTAGTGCAG | 25100 fluorescence intensity (a.u.) |
| TCAGCCTCAGTACCCACCACCTCCACGCTCGCGCCGTCGGCGGAGTCACCTAGTGCAG | 3390 fluorescence intensity (a.u.) |
| TATACGAGAAGTAACCACCCCTCATGCAAGTGGTAATTTCCGGAGTCACCTAGTGCAG | 12800 fluorescence intensity (a.u.) |
| ATCCTACTGCAAATCAAAGGGCTGCCAATTTGCCAAATCACGGAGTCACCTAGTGCAG | 31600 fluorescence intensity (a.u.) |
| CAGCCGCCCGGCGCGCGCGTCACCGTCCGCAACCGCCACCCGGAGTCACCTAGTGCAG | 5140 fluorescence intensity (a.u.) |
